Data on 94 compounds can be found in the supplement of paper PMC5770031.

Structures can show the parent of a compound that is named as a salt. The list shows a part of the results. This data set is noisy: repeats of one test often differ as much as different tests do.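 Flies heterozygous for the ATM8 allele over a balancer chromosome carrying normal ATM were mated with each other on treated food. Parents laid eggs for 5–6 days and the young then developed for about 12 days, so both parents and larvae ate the compound. The read-out is the share of all emerged adults that carry two ATM8 copies, compared with 2% DMSO control vials. The paper called compounds neutral at 10–20% such offspring, harmful below 10%, and helpful above 20%.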

The assay deals with Drosophila melanogaster ATM8 (temperature-sensitive ATM allele). The assay is described as follows: fraction of eclosed F1 progeny that are homozygous ATM8 (rescue of developmental lethality); higher = more rescue of ATM8 developmental lethality; extreme values may be limits of the assay. The conditions noted are these: compound concentration applied to food 0.2 mM; 21 °C.
As for `CC(=O)O[C@]1(C(C)=O)CC[C@H]2[C@@H]3C=C(Cl)C4=CC(=O)[C@@H]5C[C@@H]5[C@]4(C)[C@H]3CC[C@@]21C`, the “fraction of eclosed F1 progeny that are homozygous ATM8” value (“fraction” for short) stood at 0.158. Turning to `N[C@@H]1CONC1=O`, the “fraction” value stood at 0. On to `O=C(O)COCCN1CCN(C(c2ccccc2)c2ccc(Cl)cc2)CC1` (centres undefined), for which the “fraction” value was 0.0435.

As to `CCCCC(CC)CCC(CC(C)C)OS(=O)(=O)O` (centres undefined), the “fraction” value worked out at 0.2. The result for `CN1C[C@H](C(=O)N[C@]2(C)O[C@@]3(O)[C@@H]4CCCN4C(=O)[C@H](Cc4ccccc4)N3C2=O)C[C@@H]2c3cccc4[nH]cc(c34)C[C@H]21` reads 0.0435; that for `CCc1c(C)[nH]c2c1C(=O)C(CN1CCOCC1)CC2` (centres undefined), 0.222. As for `CC(=O)OC1CN2CCC1CC2` (centres undefined), the “fraction” value worked out at 0.192. The result for `CCC1(c2ccccc2)NC(=O)N(C)C1=O` (centres undefined) reads 0.238; that for `CC1=C(C(=O)O)N2C(=O)[C@@H](NC(=O)[C@H](N)C3=CCC=CC3)[C@H]2SC1`, 0.118; that for `N[C@@H](CCC(=O)N[C@@H](CS)C(=O)NCC(=O)O)C(=O)O`, 0.

On to `COc1cc(C(=O)NCCCCCC(=O)O)cc(OC)c1OC`, for which the “fraction” value was found to be 0.0333.

Consider `COC(=O)C1OC(=O)C2OC23C1(C)CCC1C2(C)C(OC(C)=O)CC(OC(C)=O)C(C)(C)C2CC(O)C13C` (centres undefined), for which the “fraction” value turned out to be 0.0408. Next, `COc1cc2c3cc1Oc1cc(ccc1O)C[C@@H]1c4c(cc(OC)c(O)c4Oc4ccc(cc4)C[C@@H]3N(C)CC2)CC[N+]1(C)C`: 0.0488; `CC(CCc1ccccc1)NC(C)C(O)c1ccc(O)cc1` (centres undefined): 0.116; `COc1cccc(C2(O)CCCCC2CN(C)C)c1` (centres undefined): 0. Turning to `CC1(C)[C@H](C(=O)O)N2C(=O)C[C@H]2S1(=O)=O`, the “fraction” value was determined as 0.0909.

On to `Cc1ncc(CO)c(CO)c1O`, for which the “fraction” value was determined as 0.0566. The result for `CC1=C(/C=C/C(C)=C/C=C/C(C)=C/C=C/C=C(C)/C=C/C=C(C)/C=C/C2=C(C)C(=O)[C@@H](O)CC2(C)C)C(C)(C)C[C@H](O)C1=O` reads 0.147; that for `CC(=O)Oc1ccccc1C(=O)O`, 0.0222; that for `Cc1cc(=O)oc2cc(O)cc(O)c12`, 0.0789. Next, `O=c1cc(-c2ccccc2)oc2cc(O)ccc12`: 0.156; `CC1=C(/C=C/C(C)=C/C=C/C(C)=C/C(=O)O)C(C)(C)CCC1`: 0.17; `NC[C@@H]1CC[C@@H](N)[C@@H](O[C@H]2[C@H](O)[C@@H](O[C@H]3O[C@H](CO)[C@@H](O)[C@H](N)[C@H]3O)[C@H](N)C[C@@H]2N)O1`: 0.231.

With `C[N+]1(C)[C@@H]2CC[C@H]1C[C@@H](OC(=O)C(O)c1ccccc1)C2` (some centres undefined), the “fraction” value was determined as 0.174. The result for `COc1ccc2c(c1)OC/C(=C\c1ccc(OC)c(O)c1)C2=O` reads 0.153.

With `COC(=O)C1=C(C)NC(C)=C(C(=O)OCCN2CCN(C(c3ccccc3)c3ccccc3)CC2)C1c1cccc([N+](=O)[O-])c1` (centres undefined), the “fraction” value stood at 0.0182. The result for `CC(=O)Nc1ccccc1` reads 0.2; that for `COC(=O)[C@H]1[C@H]2C[C@H]3c4[nH]c5ccccc5c4CCN3C[C@@H]2CC[C@@H]1O`, 0.0682.

Take `C[C@H]1COc2c(C3(N)CC3)c(F)cc3c(=O)c(C(=O)O)cn1c23`: the “fraction” value was 0.0833. Next, `CC(C(=O)O)c1ccc2c(c1)Cc1cccnc1O2` (centres undefined): 0.0811. The result for `CSc1ccc2c(c1)C(N1CCN(C)CC1)Cc1ccccc1S2` (centres undefined) reads 0.098; that for `Cc1cc(C(C)(C)C)c(O)c(C)c1CC1=NCCN1`, 0.17. Next, `CN(C)CCCN1c2ccccc2Sc2ccccc21`: 0.216; `COc1ccc2c(=O)ccoc2c1`: 0.0476. Regarding `C=CC(C1=CC(=O)C=CC1=O)c1ccccc1` (centres undefined), the “fraction” value is 0.0682. The result for `CC(=O)Oc1c[nH]c2ccccc12` reads 0.167. On to `COc1ccc([C@@H]2CC(=O)c3c(O)cc(O[C@@H]4O[C@H](CO[C@@H]5O[C@@H](C)[C@H](O)[C@@H](O)[C@H]5O)[C@@H](O)[C@H](O)[C@H]4O)cc3O2)cc1O`, for which the “fraction” value is 0.135.

Consider `COc1c2ccoc2c(OC)c2oc(=O)ccc12`, for which the “fraction” value came out at 0.08. Next, `c1ccc2c(c1)cc1ccc3cccc4ccc2c1c34`: 0.262. The result for `COc1cc(OC)c(C(C)=O)c(O)c1C` reads 0.0909; that for `Cc1onc(-c2c(Cl)cccc2Cl)c1C(=O)N[C@@H]1C(=O)N2[C@@H]1SC(C)(C)[C@@H]2C(=O)O`, 0.24. The result for `CN1C(C)(C)CCCC1(C)C` reads 0.111; that for `CC[N+](C)(C)Cc1ccccc1Br`, 0.319. In the case of `C[N+](C)(C)CCCCCC[N+](C)(C)C`, the “fraction” value came to 0.118. For the compound `CN(C)/N=N/c1[nH]cnc1C(N)=O`, the “fraction” value came out at 0.0541. Next, `O=c1ccc2ccc(O)cc2o1`: 0.125; `O=C(O)c1cccnc1Nc1cccc(C(F)(F)F)c1`: 0.0682; `CC(=O)Oc1ccc2c(c1)CC[C@@H]1[C@@H]2CC[C@]2(C)[C@@H](O)CC[C@@H]12`: 0.0889.

For `Cc1oncc1C(=O)Nc1ccc(C(F)(F)F)cc1`, the “fraction” value was 0.0645. The result for `CC1CC(OC(=O)C(O)c2ccccc2)CC(C)(C)C1` (centres undefined) reads 0.0755; that for `CCOC(=O)[C@H](CCc1ccccc1)N[C@@H](C)C(=O)N1Cc2ccccc2C[C@H]1C(=O)O`, 0.0726. Next, `CC(CCc1ccccc1)NCC(O)c1ccc(O)c(C(N)=O)c1` (centres undefined): 0.0446; `O=C(O)c1cccc(O)c1O`: 0.0833; `NC(=O)c1cc[n+](CC2=C(C(=O)O)N3C(=O)[C@@H](NC(=O)[C@@H](c4ccccc4)S(=O)(=O)[O-])[C@H]3SC2)cc1`: 0.425. The result for `CCCCCCCCCc1ccc(OCCOCCOCCOCCOCCOCCOCCOCCOCCO)cc1` reads 0.2; that for `CC(C)c1ccc2oc3nc(N)c(C(=O)O)cc3c(=O)c2c1`, 0.0909. As to `COc1c(-c2coc3cc4c(cc3c2=O)CC(OC(C)=O)C(C)(C)O4)ccc2c1C=CC(C)(C)O2` (centres undefined), the “fraction” value came to 0.093.

With `CC1(C)S[C@@H]2[C@H](NC(=O)[C@H](NC(=O)N3CCNC3=O)c3ccccc3)C(=O)N2[C@H]1C(=O)O`, the “fraction” value is 0.0405.

Take `N#C/C(=C\c1ccc(O)cc1)C(=O)O` [alpha-CYANO-4-HYDROXYCINNAMIC ACID]: the “fraction” value came to 0.0645. The result for `CC(=O)Oc1ccc(/C=C/c2cc(OC(C)=O)cc(OC(C)=O)c2)cc1` reads 0.214. As to `COC(=O)Nc1nc2cc(C(=O)c3ccccc3)ccc2[nH]1`, the “fraction” value was 0.127. The result for `CC1=C(O)C(=O)C=C2C1=CC=C1[C@@]2(C)CC[C@@]2(C)[C@@H]3C[C@](C)(C(=O)O)CC[C@]3(C)CC[C@]12C` reads 0.046; that for `CCCCCCc1ccc(O)cc1O.Nc1c2ccccc2nc2ccccc12`, 0.238; that for `Cc1cc2c(cc1S(N)(=O)=O)S(=O)(=O)CCC2`, 0.238.

As for `CC1(C)CC[C@]2(C)CC[C@]3(C)C(=CC[C@@H]4[C@@]5(C)CC[C@H](O)C(C)(C)[C@@H]5CC[C@]43C)[C@@H]2C1` [beta-AMYRIN], the “fraction” value turned out to be 0.208.

With `CC(C)(O)C(Cl)(Cl)Cl`, the “fraction” value is 0.103. The result for `OCCOCCN1CCN(C2=Nc3ccccc3Sc3ccccc32)CC1` reads 0.324; that for `Cc1cc(O)c(C)c(O)c1C(=O)O`, 0.111.

In the case of `COC(=O)[C@]1(C)CC[C@]2(C)CC[C@]3(C)C4=CC=C5C(=CC(=O)C(O)=C5C)[C@]4(C)CC[C@@]3(C)[C@@H]2C1`, the “fraction” value came out at 0.35. Next, `CC1(C)S[C@@H]2[C@H](NC(=O)[C@H](N)c3ccc(O)cc3)C(=O)N2[C@H]1C(=O)O`: 0.05.

For `COc1cccc2c1C(=O)c1c(O)c3c(c(O)c1C2=O)C[C@@](O)(C(=O)CO)C[C@@H]3O[C@H]1C[C@H](N)[C@H](O)[C@H](C)O1`, the “fraction” value worked out at 0. Next, `NC(=O)SC[C@H](N)C(=O)O`: 0.217; `Cc1ncc(CNC(=O)N(CCCl)N=O)c(N)n1`: 0.2. Next, `CN[C@@H]1[C@H](O[C@H]2[C@H](O[C@H]3[C@H](O)[C@@H](O)[C@H](N=C(N)N)[C@@H](O)[C@@H]3N=C(N)N)O[C@@H](C)[C@]2(O)C=O)O[C@@H](CO)[C@H](O)[C@H]1O` [STREPTOMYCIN SULFATE [5mM; 10% aq DMSO + 5mM ethanolamine]]: 0.194; `Cc1ccc2c(Br)cc(Br)c(OC(=O)c3ccccc3)c2n1`: 0.247; `Cc1cccc(C(=O)O)c1O`: 0.0556. Next, `Fc1ccc(C(c2ccc(F)cc2)N2CCN(C/C=C/c3ccccc3)CC2)cc1`: 0.0741; `CN1CCc2c(c3ccccc3n2Cc2ccccc2)C1`: 0.0952. As to `COc1ccc2oc(-c3ccccc3OC)cc(=O)c2c1`, the “fraction” value was 0.207. The result for `Cc1ccc(Nc2c(F)cccc2Cl)c(CC(=O)O)c1` reads 0; that for `CCCCC(=O)O[C@H]1CC[C@H]2[C@@H]3CCc4cc(O)ccc4[C@H]3CC[C@]12C`, 0. The result for `COc1ccc(/C=C/C(=O)O)cc1OC` reads 0.0635; that for `CC(=O)Nc1cc2ccccc2oc1=O`, 0.125; that for `CN1CCCCC1c1ccc(-c2cccnc2)nc1` (centres undefined), 0.0889. The result for `O=C(OC[C@H]1O[C@@H](OC(=O)c2cc(O)c(O)c(OC(=O)c3cc(O)c(O)c(O)c3)c2)[C@H](OC(=O)c2cc(O)c(O)c(OC(=O)c3cc(O)c(O)c(O)c3)c2)[C@@H](OC(=O)c2cc(O)c(O)c(OC(=O)c3cc(O)c(O)c(O)c3)c2)[C@@H]1OC(=O)c1cc(O)c(O)c(OC(=O)c2cc(O)c(O)c(O)c2)c1)c1cc(O)c(O)c(OC(=O)c2cc(O)c(O)c(O)c2)c1` reads 0.178; that for `N=C(N)c1ccc(OCCCCCOc2ccc(C(=N)N)cc2)cc1`, 0.125. Regarding `CO/N=C(\C(=O)N[C@@H]1C(=O)N2C(C(=O)OCOC(=O)C(C)(C)C)=C(/C=C\c3scnc3C)CS[C@H]12)c1csc(N)n1`, the “fraction” value came out at 0.373. On to `CCCCCCCCCc1ccc(O)cc1`, for which the “fraction” value was 0.417.

Consider `c1ccc2c(Cc3c[nH]c4ccccc34)c[nH]c2c1`, for which the “fraction” value was 0.0556.

Turning to `CN(N=O)C(=O)N[C@H]1C(O)O[C@H](CO)[C@@H](O)[C@@H]1O` (mixture of isomers), the “fraction” value came to 0.17.

As to `CC1=C(CCC(=O)O)c2cc3[nH]c(cc4nc(cc5[nH]c(cc1n2)c(C)c5C(C)O)C(C)=C4C(C)O)c(C)c3CCC(=O)O` (centres undefined), the “fraction” value was found to be 0.187. For `CCOC(=O)C1=C[C@@H](OC(CC)CC)[C@H](NC(C)=O)[C@@H](N)C1`, the “fraction” value was 0.136. The result for `CNCCCC1c2ccccc2C=Cc2ccccc21` reads 0.193. The result for `CC1(C)C(=O)C=C[C@]2(C)[C@H]3CC[C@@]4(C)[C@H](c5ccoc5)OC(=O)[C@H]5O[C@]54[C@]3(C)C(=O)C[C@@H]12` reads 0.107.
